Holding throughout (assay): SEC; both purified
Experiment [1] addresses LdtMt2 AB module (residues 55-250) (M. tuberculosis H37Rv) (UniProt O53223).
Experiment [2] has as its target LdtMt2 complete extramembrane segment (residues 34-408) (M. tuberculosis H37Rv) (UniProt O53223).
For experiment [3], the target named is LdtMt2 BC module (residues 149-408) (M. tuberculosis H37Rv) (UniProt O53223).

These are yes or no findings as the source states them, for the method shown.

For “LdtMt2 AB module (residues 55-250) (from UniProt O53223 55-250) (domain or fragment)”, the binding entry in experiment [1] is reported as “no binding”.
On to “LdtMt2 complete extramembrane segment (residues 34-408) (from UniProt O53223 34-408) (domain or fragment)”, for which the binding entry in experiment [2] is given as “no binding”.
Consider “LdtMt2 BC module (residues 149-408) (from UniProt O53223 149-408) (domain or fragment)”, for which the binding result in experiment [3] is on record as “no binding”.
